# Measured values: patent publication US20040235104A1
# Results are given in words; binding and its absence hold for the method and conditions named. Binding seen in cells or lysates may run through a third protein. Some results given as binding are weak or reduced against the parent protein; the word gives no strength. Tags and fused reporters may be left off the sequences shown.
# B1: FLAG tagged SEF-FL (full length human SEF in PFLAG-CMV-1 expression vector) (receptor, not shown: small tags and cut ends)
# chain: ADTCGWRGVGPASRNSGLYNITFKYDNCTTYLNPVGKHVIADAQNITISQYACHDQVAVTILWSPGALGIEFLKGFRVILEELKSEGRQCQQLILKDPKQLNSSFKRTGMESQPFLNMKFETDYFVKVVPFPSIKNESNYHPFFFRTRACDLLLQPDNLACKPFWKPRNLNISQHGSDMQVSFDHAPHNFGFRFFYLHYKLKHEGPFKRKTCEQEQTTEMTSCLLQNVSPGDYIIELVDDTNTTRKVMHYALKPVHSPWAGPIRAVAITVPLVVISAFATLFTVMCRKKQQENIYSHLDEESSESSTYTAALPRERLRPRPKVFLCYSSKDGQNHMNVVQCFAYFLQDFCGCEVALDLWEDFSLCREGQREWVIQKIHESQFIIVVCSKGMKYFVDKKNYKHKGGGRGSGKGELFLVAVSAIAEKLRQAKQSSSAALSKFIAVYFDYSCEGDVPGILDLSTKYRLMDNLPQLCSHLHSRDHGLQEPGQHTRQGSRRNYFRSKSGRSLYVAICNMHQFIDEEPDWFEKQFVPFHPPPLRYREPVLEKFDSGLVLNDVMCKPGPESDFCLKVEAAVLGATGPADSQHESQHGGLDQDGEARPALDGSAALQPLLHTVKAGSPSDMPRDSGIYDSSVPSSELSLPLMEGLSTDQTETSSLTESVSSSSGLGEEEPPALPSKLLSSGSCKADLGCRSYTDELHAVAPL
# Columns and labels:
# [1] = biological target: T1, MYC tagged SEF-FL (full length human SEF in PCDNA4 VERSION A expression plasmid) (human) (UniProt Q8NFM7); experiment: co-immunoprecipitation and western blot of Flag_SEF and SEF_Myc co-transfected cells
# T1 sequence: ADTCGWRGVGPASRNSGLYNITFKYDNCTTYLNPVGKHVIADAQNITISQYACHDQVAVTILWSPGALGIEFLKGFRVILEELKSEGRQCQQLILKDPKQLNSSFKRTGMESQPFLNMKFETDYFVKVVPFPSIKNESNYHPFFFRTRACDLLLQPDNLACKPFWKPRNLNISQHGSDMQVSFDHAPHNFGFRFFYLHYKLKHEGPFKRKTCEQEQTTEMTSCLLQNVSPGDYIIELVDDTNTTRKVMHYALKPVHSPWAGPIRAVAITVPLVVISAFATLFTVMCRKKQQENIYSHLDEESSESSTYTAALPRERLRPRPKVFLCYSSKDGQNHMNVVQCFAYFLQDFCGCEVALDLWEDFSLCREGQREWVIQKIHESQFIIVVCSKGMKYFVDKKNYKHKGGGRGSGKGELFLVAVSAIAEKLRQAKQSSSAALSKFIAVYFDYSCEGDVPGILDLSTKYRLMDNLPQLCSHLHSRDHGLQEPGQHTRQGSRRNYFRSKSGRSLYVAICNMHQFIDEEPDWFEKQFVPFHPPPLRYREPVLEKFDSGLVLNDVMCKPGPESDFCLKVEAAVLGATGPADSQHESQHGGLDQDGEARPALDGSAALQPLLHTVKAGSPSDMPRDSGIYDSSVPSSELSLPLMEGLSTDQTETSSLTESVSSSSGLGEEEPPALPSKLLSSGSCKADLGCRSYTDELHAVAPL
# [2] = biological target: T1, MYC tagged SEF-FL (full length human SEF in PCDNA4 VERSION A expression plasmid) (human); experiment: co-immunoprecipitation from lysates of 293T cells co-transfected with FLAG and MYC tagged SEF-FL: IP anti-MYC with blot anti-FLAG M2, and the reciprocal IP anti-FLAG M2
binder,measurement,setting,value
B1,binding,[1],binds
same,binding,[2],binds
